Test results reported in US6878522B2, “Methods for the identification of compounds useful for the treatment of disease states mediated by prostaglandin D2” (priority 2000, dated 2005).
Some entries share one result that the patent states for a list of compounds. At least one compound was matched to its structure with a doubt left.

Target: T1, CRTH2 (Homo sapiens, UniProt Q9Y5Y4)
T1 construct: prolactin (prolac) signal peptide (N); expressed in transfected cells; host or cells: 300-19 cells (transformed murine pre-B lymphocytes)
T1 sequence (Q9Y5Y4 1-395): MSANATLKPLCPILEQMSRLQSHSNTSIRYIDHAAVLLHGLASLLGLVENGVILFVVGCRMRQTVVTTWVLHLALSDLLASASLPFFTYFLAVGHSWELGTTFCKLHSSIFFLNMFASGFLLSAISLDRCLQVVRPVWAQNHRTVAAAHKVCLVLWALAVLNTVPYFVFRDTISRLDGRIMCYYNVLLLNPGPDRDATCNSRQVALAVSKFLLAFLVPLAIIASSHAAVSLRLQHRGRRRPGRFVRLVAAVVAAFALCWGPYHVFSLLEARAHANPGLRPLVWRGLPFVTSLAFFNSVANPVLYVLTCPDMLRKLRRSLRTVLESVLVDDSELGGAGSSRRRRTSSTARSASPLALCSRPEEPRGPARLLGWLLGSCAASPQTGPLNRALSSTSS
Assay: [Ca2+]i mobilization assay in 300-19 cells expressing CRTH2
Format: cell-based
Details: CRTH2 stable cell line (300-19 transfectants)

EC50, > 300 nM:
O=C(O)CCCCCCC1C(=O)NC(=O)N1CCC(O)C1CCCCC1 (stereo not drawn) [BW-245C]
CCCCC[C@H](O)/C=C/[C@H]1[C@H](O)CC(=O)[C@@H]1C/C=C\CCCC(=O)O [PGE2]
CCCCC[C@H](O)/C=C/[C@@H]1[C@@H](C/C=C\CCCC(=O)O)[C@@H](O)C[C@H]1O [PGF2α]
